Measurements: paper PMC2967473, “PP2A1 Binding, Cell Transducing and Apoptotic Properties of Vpr77–92: A New Functional Domain of HIV-1 Vpr Proteins” (PLoS ONE, 2010)
No constants are given. Whether binding was seen depends on the method and setting. Some binding calls cover weakened binding; strength is not graded here.

By UniProt entry, the sequences of proteins in these tests, tags left out.
UniProt P30153: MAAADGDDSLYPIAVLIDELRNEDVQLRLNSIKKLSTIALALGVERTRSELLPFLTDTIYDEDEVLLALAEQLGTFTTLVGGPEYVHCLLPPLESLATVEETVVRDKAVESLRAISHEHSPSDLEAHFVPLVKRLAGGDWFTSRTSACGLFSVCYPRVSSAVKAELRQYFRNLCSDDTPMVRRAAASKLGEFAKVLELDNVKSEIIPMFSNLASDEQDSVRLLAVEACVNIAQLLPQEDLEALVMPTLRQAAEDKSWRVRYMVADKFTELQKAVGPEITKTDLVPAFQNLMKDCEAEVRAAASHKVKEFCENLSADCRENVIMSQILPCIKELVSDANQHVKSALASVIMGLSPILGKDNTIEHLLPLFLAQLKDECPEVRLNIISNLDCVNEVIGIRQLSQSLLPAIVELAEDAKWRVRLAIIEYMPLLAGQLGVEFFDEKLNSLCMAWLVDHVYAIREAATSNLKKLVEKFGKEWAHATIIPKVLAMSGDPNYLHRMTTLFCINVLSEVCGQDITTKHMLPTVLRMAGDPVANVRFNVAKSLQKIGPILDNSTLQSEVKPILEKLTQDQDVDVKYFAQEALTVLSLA

Assays:
Test in all cases: peptide or protein array; both purified
[1] = target: 89.6-Vpr dodecapeptide 29 (cellulose-bound) (HIV-1 (89.6 isolate))
[2] = target: 89.6-Vpr dodecapeptide 30 (cellulose-bound) (HIV-1 (89.6 isolate))
[3] = target: 89.6-Vpr dodecapeptide 31 (cellulose-bound) (HIV-1 (89.6 isolate))
[4] = target: 89.6-Vpr dodecapeptide 32 (cellulose-bound) (HIV-1 (89.6 isolate))

Measured: binding

recombinant PP2A-A subunit (from UniProt P30153 1-589)
binds: [1] | [2] | [3] | [4]
